The record followed here is the supplement of paper PMC3682954.

Where a name gives a salt, the structure may show the parent alone. ± gives the standard deviation of the averaged measurements. This is one part of the list. Single values are uncertain, as repeats are few or missing.

Broadly, the cell viability is a read-out of living cells in per cent, often relative to untreated cells.

This experiment deals with RAW 264.7. The experiment is described as follows: cell viability (MTT) relative to vehicle control; higher = more viable cells. The note with it: stimulus: HMGB1 5 ug/ml, 18 h.
Where [1] appears, read: compound concentration: 1 ug/ml.

As for `NS(=O)(=O)c1cc2c(cc1Cl)N=CNS2(=O)=O`, the cell viability (compound concentration: 3 uM) came to 112%.
On to `NS(=O)(=O)c1cc2c(cc1Cl)N=CNS2(=O)=O` [Chlorothiazide], for which the cell viability (compound concentration: 3 uM) was 102 ± 4.1%.
Still for that read-out and setting: the figure for `C=NC(C(=O)NC1C(=O)N2C1SC(C)(C)C2C(=O)O)c1ccccc1` (configuration not stated) is 111%; for `CC(C)COCC(CN(Cc1ccccc1)c1ccccc1)N1CCCC1` (configuration not stated) [Bepridil hydrochloride] it is 94.2 ± 3%.
Consider `CC(C)COCC(CN(Cc1ccccc1)c1ccccc1)N1CCCC1` (configuration not stated) [Bepridil], for which, for the setting “compound concentration: 3 uM”, the cell viability stood at 110%.
With `CC(C)COCC(CN(Cc1ccccc1)c1ccccc1)N1CCCC1` (configuration not stated), the cell viability (compound concentration: 3 uM) was determined as 100%.
On to `Cn1c(=O)c2[nH]c(C3CCCC3)nc2n(C)c1=O` [8-Cyclopentyl-1,3-dimethylxanthine], for which the cell viability (compound concentration: 3 uM) amounted to 101%.
Consider `CCOC(=O)[C@H](CCc1ccccc1)N[C@@H](C)C(=O)N1[C@H](C(=O)O)C[C@@H]2CCC[C@@H]21`, for which, for the setting “compound concentration: 3 uM”, the cell viability is 102 ± 4.5%.
In the case of `CCOC(=O)[C@H](CCc1ccccc1)N[C@@H](C)C(=O)N1[C@H](C(=O)O)C[C@@H]2CCC[C@@H]21` [Ramipril], the cell viability (compound concentration: 3 uM) is 95.2 ± 3.7%.
`CCOc1ccc2c(c1)C(C)=CC(C)(C)N2` [Ethoxyquin]: the cell viability (compound concentration: 3 uM) worked out at 135%.
Regarding `NC(=O)c1ncn([C@@H]2O[C@H](CO)[C@@H](O)[C@H]2O)n1`, where the note is “compound concentration: 3 uM”, the cell viability turned out to be 104%.
As to `NC(=O)c1ncn([C@@H]2O[C@H](CO)[C@@H](O)[C@H]2O)n1` [Ribavirin], the cell viability (compound concentration: 3 uM) is 100 ± 20%.
For the molecule `NS(=O)(=O)c1cc(C(=O)O)c(NCc2ccco2)cc1Cl` [Furosemide], the cell viability (compound concentration: 3 uM) was found to be 98 ± 17%.
Consider `NS(=O)(=O)c1cc(C(=O)O)c(NCc2ccco2)cc1Cl`, for which, where the note is “compound concentration: 3 uM”, the cell viability is 107%.
As to `NC(=S)c1ccc[n+]([C@@H]2O[C@@H](COP(=O)([O-])OP(=O)(O)OC[C@H]3O[C@@H](n4cnc5c(N)ncnc54)C(OP(=O)(O)O)[C@H]3O)C(O)C2O)c1` (some centres not stated) [Thio-NADP sodium], the cell viability (compound concentration: 3 uM) amounted to 113%.
For `COc1ccc2oc(-c3ccccc3)c(OC)c(=O)c2c1`, the cell viability under setting [1] came out at 85.6%.
For the molecule `O=C(O)c1cc(=O)c2ccccc2o1`, where the note is “compound concentration: 3 uM”, the cell viability is 112%.
Consider `COc1cc(C(=O)NS(=O)(=O)c2ccccc2C)ccc1Cc1cn(C)c2ccc(NC(=O)OC3CCCC3)cc12` [Zafirlukast], for which the cell viability (compound concentration: 3 uM) was found to be 99.6 ± 5%.
For the molecule `COc1cc(C(=O)NS(=O)(=O)c2ccccc2C)ccc1Cc1cn(C)c2ccc(NC(=O)OC3CCCC3)cc12`, the cell viability (compound concentration: 3 uM) came to 96.2%.
Turning to `O=c1ccn(C2OC(COc3ccc([N+](=O)[O-])cc3)C(O)C2O)c(=O)[nH]1` (configuration not stated), the cell viability under setting [1] turned out to be 91.9%.
As to `Cc1cc(C2CCCCC2)n(O)c(=O)c1` [Ciclopirox ethanolamine], the cell viability (compound concentration: 3 uM) came to 96.5%.
As to `Cc1cc(C2CCCCC2)n(O)c(=O)c1`, where the note is “compound concentration: 3 uM”, the cell viability worked out at 108%.
Consider `CN1CCN(C2=Nc3cc(Cl)ccc3Nc3ccccc32)CC1`, for which the cell viability (compound concentration: 3 uM) worked out at 101%.
On to `CN1CCN(C2=Nc3cc(Cl)ccc3Nc3ccccc32)CC1` [Clozapine], for which the cell viability (compound concentration: 3 uM) came out at 104 ± 2.4%.
Regarding `CCCCCCCCCCCCCCCC(=O)NCCO` [Palmitoylethanolamide], the cell viability (compound concentration: 3 uM) is 102%.
In the case of `O=C(O)c1ccccc1Nc1ccccc1` [N-Phenylanthranilic acid], for the setting “compound concentration: 3 uM”, the cell viability turned out to be 110%.
As for `O=c1cc(-c2cccc(O)c2)oc2cccc(O)c12`, the cell viability under setting [1] worked out at 99.3%.
Turning to `COc1ccc(-c2coc3cc(OC4OC(CO)C(O)C(O)C4O)cc(O)c3c2=O)cc1` (configuration not stated) [Sissotrine], the cell viability under setting [1] came out at 88.9%.
On to `Brc1ccc([C@H]2CN3CCSC3=N2)cc1` [S(-)-p-Bromotetramisole oxalate], for which the cell viability (compound concentration: 3 uM) was 106%.
As to `C=CC[C@H](N)C(=O)O` [L-allylglycine], where the note is “compound concentration: 3 uM”, the cell viability was found to be 106%.
In the case of `C[C@@H]1NC(=O)NC1=O` [Methylhydantoin-5-(L)], the cell viability (compound concentration: 3 uM) was found to be 91.3%.
Same read-out and setting: the figure for `CC1CCc2c(N3CCC(O)CC3)c(F)cc3c(=O)c(C(=O)O)cn1c23` (configuration not stated) [Nadifloxacin] is 106 ± 14%; for `CCCc1c(OCCCCc2nnn[nH]2)ccc(C(C)=O)c1O` it is 101%.
In the case of `O=c1c(O)c(-c2ccc(O)cc2)oc2ccc(O)cc12`, the cell viability under setting [1] was 85.8%.
As to `Cc1ccc(-c2ncc(Cl)cc2-c2ccc(S(C)(=O)=O)cc2)cn1` [Etoricoxib], the cell viability (compound concentration: 3 uM) was 106 ± 10%.
In the case of `N=C1C=CC(=C(c2ccc(N)cc2)c2ccc(N)cc2)C=C1`, the cell viability (compound concentration: 3 uM) amounted to 89.1%.
`CC1(C2CCCC2)Cc2cc(OCC(=O)O)c(Cl)c(Cl)c2C1=O` (configuration not stated): the cell viability (compound concentration: 3 uM) was found to be 95.1%.
Consider `O=C(O)c1cc(O)c2c(c1)[C@@H]([C@H]1c3cc(C(=O)O)cc(O)c3C(=O)c3c(O[C@@H]4O[C@H](CO)[C@@H](O)[C@H](O)[C@H]4O)cccc31)c1cccc(O[C@@H]3O[C@H](CO)[C@@H](O)[C@H](O)[C@H]3O)c1C2=O` [Sennoside B], for which the cell viability under setting [1] was determined as 97.5%.
`CO[C@H]1O[C@@H]2O[C@@]3(C)CC[C@H]4[C@H](C)CC[C@@H]([C@H]1C)[C@@]24OO3`: under “compound concentration: 3 uM”, the cell viability came out at 87.7%.
As to `N#C/C(=C\c1ccc(O)c(O)c1)C(=O)c1ccc(O)c(O)c1` [Tyrphostin AG 538], under “compound concentration: 3 uM”, the cell viability is 119%.
On to `NC12CC3CC(CC(C3)C1)C2`, for which, where the note is “compound concentration: 3 uM”, the cell viability turned out to be 102%.
Turning to `NC12CC3CC(CC(C3)C1)C2` [Amantadine hydrochloride], under “compound concentration: 3 uM”, the cell viability turned out to be 105%.
`NC12CC3CC(CC(C3)C1)C2` [Adamantamine fumarate]: the cell viability (compound concentration: 3 uM) came out at 123%.
As to `CC(=O)[C@H]1CC[C@H]2[C@@H]3CC=C4C[C@@H](OS(=O)(=O)O)CC[C@]4(C)[C@H]3CC[C@]12C` [Pregnenolone sulfate sodium], the cell viability (compound concentration: 3 uM) was found to be 106%.
For `Cc1cc(=O)n(-c2ccccc2)n1C`, where the note is “compound concentration: 3 uM”, the cell viability stood at 100%.
`Cc1cc(=O)n(-c2ccccc2)n1C` [Antipyrine]: the cell viability (compound concentration: 3 uM) came out at 97.7%.
Same read-out and setting: the result for `NCC=CC(=O)O` (stereo in doubt) [cis-4-Aminocrotonic acid] reads 111%; that for `Clc1ccc(COC(Cn2ccnc2)c2ccc(Cl)cc2Cl)c(Cl)c1` (configuration not stated) [Miconazole], 98 ± 9.8%; that for `Clc1ccc(COC(Cn2ccnc2)c2ccc(Cl)cc2Cl)c(Cl)c1` (configuration not stated), 108%.
With `NCCCCNCCCN` [Spermidine trihydrochloride], the cell viability (compound concentration: 3 uM) amounted to 122%.
Take `CC(C)(C(=O)c1cccnc1)c1cccnc1` [Metyrapone]: under “compound concentration: 3 uM”, the cell viability was 94.9%.
Take `O=c1cc(-c2ccc(O)c(O)c2)oc2cc(O)cc(O)c12` [Luteolin]: the cell viability (compound concentration: 3 uM) was 86.6%.
`CCOC(=O)[C@]12CC1/C(=N\O)c1ccccc1O2` (some centres not stated): the cell viability (compound concentration: 3 uM) amounted to 102%.
Regarding `CCN[C@H]1C[C@H](C)S(=O)(=O)c2sc(S(N)(=O)=O)cc21` [Dorzolamide], under “compound concentration: 3 uM”, the cell viability was 107%.
For `CCN[C@H]1C[C@H](C)S(=O)(=O)c2sc(S(N)(=O)=O)cc21` [Dorzolamide hydrochloride], where the note is “compound concentration: 3 uM”, the cell viability was determined as 101%.
With `CC(C)/N=c1\cc2n(-c3ccc(Cl)cc3)c3ccccc3nc-2cc1Nc1ccc(Cl)cc1`, under “compound concentration: 3 uM”, the cell viability was 95.6 ± 4%.
`CC(C)/N=c1\cc2n(-c3ccc(Cl)cc3)c3ccccc3nc-2cc1Nc1ccc(Cl)cc1` [Clofazimine]: the cell viability (compound concentration: 3 uM) amounted to 75.7%.
`O=C1Cc2cc(CCN3CCN(c4nsc5ccccc45)CC3)c(Cl)cc2N1` [Ziprasidone hydrochloride monohydrate]: the cell viability (compound concentration: 3 uM) was 108%.
Regarding `O=C1Cc2cc(CCN3CCN(c4nsc5ccccc45)CC3)c(Cl)cc2N1` [Ziprasidone  Hydrochloride], under “compound concentration: 3 uM”, the cell viability came out at 113%.
In the case of `CC(=O)N(O)CCCCCNC(=O)CCC(=O)N(O)CCCCCNC(=O)CCC(=O)N(O)CCCCCN` [Deferoxamine mesylate], where the note is “compound concentration: 3 uM”, the cell viability came to 120%.
As for `CC(=O)N(O)CCCCCNC(=O)CCC(=O)N(O)CCCCCNC(=O)CCC(=O)N(O)CCCCCN`, the cell viability (compound concentration: 3 uM) is 97.7%.
Same read-out and setting: the result for `O=S(=O)(c1cccc2cnccc12)N1CCNCC1` reads 102%; that for `NC(Cc1cccc(-c2ccccc2CP(=O)(O)O)c1)C(=O)O` (stereo not drawn) [Phenylbenzene-omega-phosphono-alpha-amino acid], 97.6%; that for `N[C@H](CO)C(=O)O` [D-Serine], 117%.
With `CC(C)NC[C@H](O)COc1ccc(CC(N)=O)cc1` [S(-)-Atenolol], the cell viability (compound concentration: 3 uM) stood at 94.8%.
For the molecule `CC(C)NC[C@H](O)COc1ccc(CC(N)=O)cc1` [(S)-(-)-Atenolol], for the setting “compound concentration: 3 uM”, the cell viability was 76.7%.
Consider `c1cnc2c(c1)ccc1cccnc12` [1,10-Phenanthroline monohydrate], for which the cell viability (compound concentration: 3 uM) worked out at 85.6%.
Still for that read-out and setting: the figure for `CCOC(=O)C(C)(C)Oc1ccc(Cl)cc1` is 98.1%; for `CCOC(=O)C(C)(C)Oc1ccc(Cl)cc1` [Clofibrate] it is 93.7 ± 12%.
Regarding `CCC(=O)Oc1cc2c(C)cc(=O)oc2cc1Cl`, under setting [1], the cell viability is 91.8%.
For `C[C@@H]1[C@H](O)[C@@H](C)/C=C/C=C/C=C/C=C/C=C/C=C/C=C/[C@H](O[C@@H]2O[C@H](C)[C@@H](O)[C@H](N)[C@@H]2O)C[C@@H]2O[C@](O)(C[C@@H](O)C[C@@H](O)[C@H](O)CC[C@@H](O)C[C@@H](O)CC(=O)O[C@H]1C)C[C@H](O)[C@H]2C(=O)O` [Amphotericin B], the cell viability (compound concentration: 3 uM) was determined as 132%.
With `C[C@@H]1[C@H](O)[C@@H](C)/C=C/C=C/C=C/C=C/C=C/C=C/C=C/[C@H](O[C@@H]2O[C@H](C)[C@@H](O)[C@H](N)[C@@H]2O)C[C@@H]2O[C@](O)(C[C@@H](O)C[C@@H](O)[C@H](O)CC[C@@H](O)C[C@@H](O)CC(=O)O[C@H]1C)C[C@H](O)[C@H]2C(=O)O`, the cell viability (compound concentration: 3 uM) amounted to 105 ± 7.9%.
As to `CO[C@@]1(NC(=O)CSCC#N)C(=O)N2C(C(=O)O)=C(CSc3nnnn3C)CS[C@@H]21` [Cefmetazole sodium], the cell viability (compound concentration: 3 uM) was 112%.
With `CO[C@@]1(NC(=O)CSCC#N)C(=O)N2C(C(=O)O)=C(CSc3nnnn3C)CS[C@@H]21`, the cell viability (compound concentration: 3 uM) turned out to be 102%.
Same read-out and setting: the figure for `CO[C@@]1(NC(=O)CSCC#N)C(=O)N2C(C(=O)O)=C(CSc3nnnn3C)CS[C@@H]21` [Cefmetazole sodium salt] is 102%.
In the case of `C[C@]12CC[C@@H]3c4ccc(O)cc4CC[C@H]3[C@@H]1CC[C@@H]2OC(=O)CCC1CCCC1`, the cell viability (compound concentration: 3 uM) was determined as 103%.
On to `C[C@]12CC[C@@H]3c4ccc(O)cc4CC[C@H]3[C@@H]1CC[C@@H]2OC(=O)CCC1CCCC1` [beta-estradiol 17-cypionate], for which the cell viability under setting [1] was found to be 105%.
On the same count and under the same terms, the figure for `O=C1C=C2CC3(O)COc4c(ccc(O)c4O)C3=C2C=C1O` (configuration not stated) [Hematein] is 109%.
As for `CN1CCc2cccc3c2[C@H]1Cc1ccc(O)c(O)c1-3`, the cell viability (compound concentration: 3 uM) worked out at 107%.
With `CN1CCc2cccc3c2[C@H]1Cc1ccc(O)c(O)c1-3` [Apomorphine R (-)], where the note is “compound concentration: 3 uM”, the cell viability was determined as 117%.
On to `CN1CCc2cccc3c2[C@H]1Cc1ccc(O)c(O)c1-3` [R(-) Apomorphine hydrochloride hemihydrate], for which, where the note is “compound concentration: 3 uM”, the cell viability was determined as 104%.
As to `CN1CCc2cccc3c2[C@H]1Cc1ccc(O)c(O)c1-3` [Apomorphine hydrochloride hemihydrate], the cell viability (compound concentration: 3 uM) came to 103%.
